Structures are written as SMILES. “Also recorded” adds a separate entry of the source.

The experiment concerns acetic acid-induced reduction of bladder capacity. Description: Dilute acetic acid model: bladder capacity by filling cystometry during continuous intravesical acetic acid irritation. The experiment is classed as in vivo, rat. To be noted: intravenous, increasing doses, rats during continuous irritation. The text has this:
The objective of the current study was to determine the effect of TTX-R sodium channel modulators or use dependent sodium channel modulators on the ability to reverse the reduction in bladder capacity seen following continuous infusion of dilute acetic acid, a commonly used model of lower urinary tract disorders including overactive bladder.
Animal Preparation: Female rats (250-275 g BW) were anesthetized with urethane (1.2 g/kg) and a saline-filled catheter (PE-50) was inserted into either the jugular vein for intravenous (i.v.; saline vehicle) or the proximal duodenum for intraduodenal (i.d.; distilled water or 10% Tween 80 in saline as vehicle) drug administration. Via a midline lower abdominal incision, a flared-tipped PE 50 catheter was inserted into the bladder dome for bladder filling and pressure recording and secured by ligation. The abdominal cavity was moistened with saline and closed by covering with a thin plastic sheet in order to maintain access to the bladder for emptying purposes. Fine silver or stainless steel wire electrodes were inserted into the external urethral sphincter (EUS) percutaneously for electromyography (EMG). […]
Data were analyzed by non-parametric ANOVA for repeated measures (Friedman Test) with Dunn's Multiple Comparison test. […]

With `CCN(CC)CC(=O)Nc1c(C)cccc1C` [Lidocaine, 2-(diethylamino)-N-(2,6-dimethylphenyl)acetamide], the “effect on bladder capacity (reversal of acetic acid-induced reduction)” value was “capable of partially reversing the reduction in bladder capacity caused by acetic acid in a dose-dependent fashion; also recorded: dose-dependent and statistically significant reversal”. Further, for the setting “listed as lidocoaine”, the “effect on bladder capacity (reversal of acetic acid-induced reduction)” value is reported as “dose-dependent, statistically significant increases in bladder capacity”.
